Reference: PubChem BioAssay AID2551 (National Center for Advancing Translational Sciences (NCATS), 2010)
Out of some 310,000 compounds screened, about 17,000 (5.5%) were called active. Inconclusive means that the source gave no clear call. Such entries were picked first, then a sample of the others. Calls come from the whole dose curve; as a rule, active = well fitted inhibition curve with a large enough effect; inconclusive = small, poorly fitted or top-dose-only effect, or effect the other way; inactive = no such curve, though single readings can be large or run the other way. Potencies beside an inconclusive call are fits to weak or partial responses and may not hold up.

By UniProt entry, the sequences of proteins in these tests, tags left out. Where a name states a change or a piece, a line headed by the entry shows the natural chain unless it says otherwise.
UniProt P51450: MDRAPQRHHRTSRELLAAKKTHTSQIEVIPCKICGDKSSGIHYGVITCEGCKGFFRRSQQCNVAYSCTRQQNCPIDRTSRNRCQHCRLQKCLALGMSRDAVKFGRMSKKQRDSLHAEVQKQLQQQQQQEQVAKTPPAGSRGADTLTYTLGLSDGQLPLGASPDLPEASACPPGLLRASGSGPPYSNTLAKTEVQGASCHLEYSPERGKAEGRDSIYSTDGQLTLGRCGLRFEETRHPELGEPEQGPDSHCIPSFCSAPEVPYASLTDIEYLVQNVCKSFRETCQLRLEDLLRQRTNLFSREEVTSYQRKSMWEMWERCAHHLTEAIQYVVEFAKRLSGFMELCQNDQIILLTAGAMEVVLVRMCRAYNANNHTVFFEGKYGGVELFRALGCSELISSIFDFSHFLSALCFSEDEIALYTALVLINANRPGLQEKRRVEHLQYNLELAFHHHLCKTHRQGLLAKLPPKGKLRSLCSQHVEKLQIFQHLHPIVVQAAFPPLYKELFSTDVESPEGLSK

Each compound was assayed against Nuclear receptor ROR-gamma (Mus musculus) (UniProt P51450) (assay: qHTS for inhibitors of ROR gamma transcriptional activity). Conditions: Drosophila S2 Gal4-RORgamma UAS-luciferase reporter, 20 h; series mostly up to 53.6 µM.
Outline: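 Stably transfected Drosophila Schneider cells are the test system, with ROR gamma fused to Gal4 and luciferase under UAS control; luminescence is read after 20 hr of 700 uM copper sulfate induction at ambient temperature.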
Note: nearly all actives have a fitted effect of over 60% in size.
Potency is the fitted concentration of half-maximal effect.

Potency, inactive:
CCC1(C)C(Nc2c(C)cccc2C)=NC(=S)N1c1ccc(NC(C)=O)cc1 (stereo not drawn), CC1CCN(C(=O)Cn2c(=O)n(CCc3ccccc3)c(=O)c3ccccc32)CC1, Cc1nn(CC(=O)Nc2ccncc2)c(C)c1[N+](=O)[O-], CCCNc1nc2c(c(=O)[nH]c(=O)n2C)n1Cc1ccc(F)cc1, CCn1cc(C(=O)NCc2ccco2)c(=O)c2cc(S(=O)(=O)N3CC(C)CC(C)C3)ccc21 (stereo not drawn), C=C1CCC(C2CC(=O)OC2=O)C(=O)CCC2C1CC2(C)C (stereo not drawn), CCC(C)c1ccc(OCc2ccc(C(=O)OC)o2)cc1 (stereo not drawn), CCCc1cc(C(=O)Nc2cnn(Cc3ccc(F)cc3)c2)no1, CCC(=O)N1CCc2cc(S(=O)(=O)CCC(=O)N3CCCC(C)C3)ccc21 (stereo not drawn), Cc1cccc(NC(=O)CN(C)S(=O)(=O)c2ccc3c(c2)n(C)c(=O)c(=O)n3C)c1C, COc1ccc(C2c3ccc(O)cc3Oc3ncn(Cc4ccco4)c(=N)c32)cc1 (stereo not drawn), COC(=O)COc1ccc(/C=C2/SC(=O)N(CC(=O)N3CCCC3)C2=O)cc1Br

Potency, active:
CC(C)NC(=S)NN=C1c2ccccc2-c2ccccc21 7.94 µM, Nc1[nH]c(N=NC(=O)c2ccccc2)c2ccccc12 8.91 µM, CCCCn1c(=S)[nH]c2ncccc2c1=O 2 µM, COC(=O)c1ccc(C(=O)OC)c(NC(=S)N2CCCC(C)C2)c1 (stereo not drawn) 7.94 µM, COc1ccccc1N(CC(=O)NC1CCCC1)C(=O)c1oc(C(C)(C)C)cc1C 12.6 µM, Cc1ccc(-n2c(Cc3cccc4ccccc34)n[nH]c2=S)c(C)c1 1.12 µM, COc1ccccc1/C=C1\S/C(=N/NC(=O)c2cccc(Br)c2)NC1=O 0.316 µM, CC(=O)CC1(OC(C)=O)C(=O)N(C)c2ccccc21 (stereo not drawn) 6.31 µM, Cc1nn2c(Nc3ccc(F)cc3)c3c(nc2c1-c1ccccc1)CCC3 2.82 µM, CCCCN(CCCC)C(=S)NC(=O)c1ccccc1Cl 0.708 µM, c1ccc(CNc2ccc3ccccc3n2)nc1 10 µM, COc1ccc(-n2c(=S)[nH]c3cc(C(=O)N4CCN(c5ccccc5)CC4)ccc3c2=O)cc1 10 µM, CCCN(CCC)C(=O)c1ccc2c(=O)n(Cc3ccco3)c(=S)[nH]c2c1 3.16 µM, CCc1ccc(/C=C2\SC(=S)N(CCCC(=O)Nc3ccc(C(=O)O)cc3)C2=O)cc1 3.98 µM, COC(=O)c1ccc(C2NC(=S)N(c3ccccc3)C(C)=C2C(=O)Nc2ccccc2OC)cc1 (stereo not drawn) 10 µM, Cc1ccc(Sc2ccc(NC(=O)CCl)cc2)c(C)c1 2.82 µM, Cc1cc(N/N=C2/CCCc3ccccc32)nc2ccccc12 2 µM, CC(C)C(=O)N1CCN(c2ccc(NC(=S)NC(=O)c3cc4ccccc4o3)cc2)CC1 5.01 µM, O=C(N/N=C/c1ccc[nH]1)c1ccccc1O 1.26 µM, CC(/C=C\C=C\c1ccccc1)=N\NC(=O)c1cncc(Br)c1 4.47 µM, CCCN(CCC)C(=S)NC(=O)c1ccc(Cl)cc1Cl 0.282 µM, CC1CCN(Cc2c(C(=O)N/N=C/c3ccccc3O)nnn2-c2nonc2N)CC1 10 µM

Potency, inconclusive:
O=C(NCCC1=CCCCC1)NC1CCCCC1 1.41 µM [inhibitor, partial curve, poor fit], COc1ccc(CCN(C(=O)c2cccc(F)c2)C2CC(=O)N(c3ccccc3)C2=O)cc1 (stereo not drawn) 8.91 µM [activator, partial curve], CCc1nnc(NC(=O)c2sc3nc4cc(C)ccc4cc3c2N)s1 11.2 µM [inhibitor, partial curve, poor fit], Cc1nc(-c2ccc([N+](=O)[O-])cc2)nc2[nH]ccc(=O)c12 12.6 µM [activator, partial curve], COC(=O)c1ccc(C(NC(=O)OCc2ccccc2)/C(C)=C/[C@@H](C)C(=O)N(C)Cc2cccnc2)cc1 (stereo partly drawn) 6.31 µM [activator, full curve], NC(=O)N/N=C/c1c(Sc2nnnn2-c2ccccc2)nc2ccccn2c1=O 25.1 µM [inhibitor, single point], CCOC(=O)c1c(NC(=O)CN2C(=O)NC3(CCCCC3)C2=O)sc(C)c1-c1ccc(C)cc1 10 µM [activator, partial curve], Cc1cccc(C(=O)Oc2ccccc2/C=N/Nc2ccc([N+](=O)[O-])cc2)c1 7.08 µM [activator, partial curve], Cc1ccc(C(=O)N/N=C\c2sccc2C)cn1 25.1 µM [inhibitor, single point], C/C(=N\NC(=S)NCCc1ccccc1)c1ccc(O)cc1O 35.5 µM [inhibitor, single point], O=[N+]([O-])c1cccc(/C=C/c2ccccn2)c1 35.5 µM [activator, single point], CCc1nc(SCC(=O)c2cc(C)ccc2C)n[nH]1 22.4 µM [activator, single point], Cc1ccc(-c2nc(CS(=O)CC(=O)NC3CCC(C)CC3)c(C)o2)cc1 (stereo not drawn) 0.316 µM [inhibitor, single point], O=C(CN1CCN(S(=O)(=O)c2ccc(Cl)cc2)CC1)Nc1ccc2c(c1)CCC2 14.1 µM [activator, partial curve], CC1(c2ccc(NC(=O)c3ccccc3F)cc2)CC1(Cl)Cl (stereo not drawn) 12.6 µM [activator, partial curve], O=C(Nc1ncccc1O)c1ccc(Oc2ccccc2)cc1 25.1 µM [inhibitor, single point], O=C(/C=C/c1ccc(Cl)cc1Cl)NCCSCc1ccccc1 31.6 µM [activator, single point], O=C(Cc1ccccc1)NNC(=S)Nc1ccc(Cl)cc1 17.8 µM [inhibitor, single point], Nc1cc(N)nc(SCC(=O)Nc2ccc(Br)cc2Cl)n1 7.94 µM [activator, partial curve], COc1ccc(C(=O)C(CCC(CNC(C)(C)C)C(=O)c2ccc(OC)cc2)CNC(C)(C)C)cc1 (stereo not drawn) 35.5 µM [inhibitor, single point], Cc1ccc(CNC(=O)C(Cc2ccccc2)NS(=O)(=O)c2ccc(Br)s2)cc1 (stereo not drawn) 35.5 µM [activator, single point], O=C(/C=C/c1ccccc1)c1cc(Br)ccc(=O)c1O 28.2 µM [inhibitor, single point], Cc1ccc(C)c(-c2nn(-c3cc(N4CCN(CCO)CC4)ccc3[N+](=O)[O-])c(=O)c3ccccc23)c1 35.5 µM [inhibitor, single point], c1cncc(N=c2scc(-c3cccc4ccccc34)n2CCCn2ccnc2)c1 8.91 µM [activator, partial curve], COc1cc(/C=C/C(=O)OCC(=O)Nc2ccc(C)cc2[N+](=O)[O-])ccc1O 4.47 µM [inhibitor, partial curve], c1ccc(CCNc2ncnc3c2cnn3-c2ccccc2)cc1 0.1 µM [activator, single point], N#CC1=C(N)C(C#N)(C#N)[C@H](c2ccncc2)[C@H]2CN(C(=O)OCc3ccccc3)CC=C12 25.1 µM [inhibitor, single point], O=C(N/N=C/c1ccco1)C1CC1 35.5 µM [activator, single point], Cc1ccc(S(=O)(=O)N(C)c2ccc(NS(C)(=O)=O)cc2)cc1 17.8 µM [activator, single point], Cc1cccc(C)c1NC(=O)C(NC=O)c1ccc(Cl)cc1 (stereo not drawn) 31.6 µM [activator, single point], NNC(=O)CNC(=O)c1ccccc1F 0.398 µM [inhibitor, single point], Cc1ccc(NS(=O)(=O)c2ccc3c(c2)oc(=O)n3C)cc1 14.1 µM [activator, partial curve], Cc1onc(-c2ccccc2)c1C(=O)N/N=C/c1ccccc1OC(C)C 1.26 µM [inhibitor, full curve, poor fit], CC(C)c1nnc(NC(=O)CN(C)S(=O)(=O)c2ccc3c(c2)OCCO3)s1 6.31 µM [activator, single point], O=C(COC(=O)/C=C/C(=O)N1CCN(c2ccccc2)CC1)NC(c1ccccc1)c1ccccc1 35.5 µM [inhibitor, single point], Cc1cc(C)c2c(n1)nn1c(NCCCN(C)C)cc(C)nc21 1.78 µM [inhibitor, partial curve, poor fit], CCCCc1ccc(NC(=S)N2CCN(C(=O)c3ccco3)CC2)cc1 22.4 µM [inhibitor, single point], Clc1ccc(OCCn2ccnc2)c2ccccc12 35.5 µM [inhibitor, single point], COc1cccc(CNCCc2c[nH]c3ccccc23)c1OCc1ccc(F)cc1 35.5 µM [inhibitor, single point]
